Source: PMC5779225
No constants are given. Whether binding was seen depends on the method and setting. Binding seen in cells or lysates may run through a third protein. Where a sequence is shown, tags or fusion partners need not be part of it.

By UniProt entry, the sequences of proteins in these tests, tags left out. Residues count along the entry.
UniProt P06213, residues 763-1382: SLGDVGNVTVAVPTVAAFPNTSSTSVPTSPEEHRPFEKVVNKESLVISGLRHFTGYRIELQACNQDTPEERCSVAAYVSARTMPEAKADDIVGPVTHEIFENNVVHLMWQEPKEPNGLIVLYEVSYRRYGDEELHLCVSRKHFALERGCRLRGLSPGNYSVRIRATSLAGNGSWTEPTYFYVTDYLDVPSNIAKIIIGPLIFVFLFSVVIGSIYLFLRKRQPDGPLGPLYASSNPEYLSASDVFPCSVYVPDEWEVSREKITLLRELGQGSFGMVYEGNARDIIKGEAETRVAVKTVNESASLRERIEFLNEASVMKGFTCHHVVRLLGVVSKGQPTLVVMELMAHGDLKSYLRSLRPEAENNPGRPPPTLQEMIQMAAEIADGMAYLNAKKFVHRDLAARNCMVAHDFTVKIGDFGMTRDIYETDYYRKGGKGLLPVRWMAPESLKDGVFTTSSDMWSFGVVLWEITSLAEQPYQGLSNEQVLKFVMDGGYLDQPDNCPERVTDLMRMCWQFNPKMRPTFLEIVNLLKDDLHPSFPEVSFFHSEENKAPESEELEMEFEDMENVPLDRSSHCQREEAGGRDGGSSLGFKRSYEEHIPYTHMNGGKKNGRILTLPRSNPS

Biological target: T1, Shisa2-MycHis (mouse) (UniProt Q8QZV2)
T1 sequence: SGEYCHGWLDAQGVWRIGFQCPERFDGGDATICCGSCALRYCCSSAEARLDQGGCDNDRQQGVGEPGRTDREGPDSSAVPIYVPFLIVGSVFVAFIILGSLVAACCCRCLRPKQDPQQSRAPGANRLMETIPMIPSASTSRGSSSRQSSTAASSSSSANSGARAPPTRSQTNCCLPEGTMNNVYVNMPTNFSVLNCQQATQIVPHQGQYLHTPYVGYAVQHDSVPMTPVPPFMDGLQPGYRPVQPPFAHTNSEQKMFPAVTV
Experiment: co-IP; HEK293T cells lysed 48 hr after transfection in IP buffer (20 mM Tris HCl pH 7.5, 150 mM NaCl, 1 mM EGTA, 0.1% TX-100); immunoprecipitated with anti-HA or anti-Myc antibodies and protein A/G agarose; immunoblot

Substance: Insulin receptor β (IRβ) (from UniProt P06213 763-1382)
- binding: no binding
